Experiment: TBARS (thiobarbituric acid reactive substance) amount of lipid
For `CCCCC/C=C\C/C=C\C/C=C\C/C=C\CCCC(=O)O[C@H](COC(=O)CCCCCCCCCCCCCCC)COP(=O)([O-])OCC[N+](C)(C)C` [PAPC, 1-Palmitoyl-2-arachidonoyl-phosphatidylcholine, reference compound], the “TBARS of solid-phase lipid” value was “PAPC (107.8) nmol (malondialdehyde equivalent)/mg (lipid)”.
In the case of `CC(C)CCC[C@@H](C)[C@H]1CC[C@H]2[C@@H]3C(=O)C=C4C[C@@H](OC(=O)CCCCCCCC(=O)O)CC[C@]4(C)[C@H]3CC[C@]12C` [oxLig-1, 9-oxo-9-(7-ketocholest-5-en-3β-yloxy)nonanoic acid], the “TBARS of solid-phase lipid” value is reported as “oxLig-1 (0.66) nmol (malondialdehyde equivalent)/mg (lipid)”.
In the case of Cardiolipin [CL, reference compound], the “TBARS of solid-phase lipid” value is reported as “CL (4.46) nmol (malondialdehyde equivalent)/mg (lipid)”.

— patent US7160733B2, “Ligand specific to β2-glycoprotein I and use thereof” (priority 2001, dated 2007)
